PubChem BioAssay AID652272 | Drosophila RNAi Screening Center – 2013
The screen tested about 21,000 reagents; below is an unselected part of those that have a named target and a result. In the full data, 503 (2.4%) are marked active. 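Raw plate light values, not normalised; calls rest on replicate z-scores that were not deposited; hits include reporter decreases as well as increases.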 Reagents against one gene are numbered here. Not stated in the record: the amount of reagent, the time to read-out.

Test: 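Finding fly genes that regulate Hedgehog signal transduction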 (primary screen)
Cell system: Drosophila clone 8 (Cl8) cells
Knock-down reagent: long dsRNA against Drosophila genes
Read-out: 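Plate reader light from a firefly reporter under a ptc promoter fragment that responds to Hedgehog, with Renilla light as transfection reference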
Scale: firefly Hh reporter signal: higher = more ptc reporter light; Renilla reference signal: higher = more Renilla control light
Hit rule: 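Called a hit if the two-replicate mean z-score lies below -2 or above +3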
Calls: active = hit: reporter lowered or raised; inactive = not a hit

no.	Gene	reagent	firefly Hh reporter signal, replicate 1	firefly Hh reporter signal, replicate 2	firefly Hh reporter signal, replicate 3	Renilla reference signal, replicate 1	Renilla reference signal, replicate 2	activity call
1	CG31229	1	88624	56379		3092	11668	inactive
2	CG4074	1	95527	80310		3078	2473	inactive
3	babos	1	1.05e5	2.50e5		2503	10617	inactive
4	babos	2	1.10e5	88821		4905	3712	inactive
5	Gnf1	1	78673	1.01e5		2896	2006	inactive
6	Csl4	1	1.33e5	84016		4177	7376	inactive
7	lncRNA:CR43632	1	40368	1.88e5		11293	4978	inactive
8	Spt-I	1	1.18e5	56804		2688	5104	inactive
9	PolA2	1	76961	1.22e5		3171	3936	inactive
10	Chsy	1	44183	1.60e5		1349	6886	inactive
11	Chsy	2	93493	2.60e5		2963	11441	inactive
12	Dis3l2	1	81211	62745		3837	2537	inactive
13	Orct2	1	82346	67762		3617	3005	inactive
14	DCP1	1	83208	83382		4180	3257	inactive
15	Pde9	1	75131	1.75e5		2888	7187	inactive
16	Pde9	2	76007	2.35e5		1528	7365	inactive
17	Pde9	3	64402	2.11e5		1548	8484	inactive
18	Pde9	4	97750	3.12e5		3499	12621	inactive
19	tw	1	71702	89600		1413	2455	inactive
20	CG5225	1	1.11e5	1.04e5		2801	2557	inactive
21	CG17580	1	1.03e5	65924		2131	4322	inactive
22	CG15719	1	75092	3.03e5		1943	10569	inactive
23	Hpf1	1	1.28e5	89697		4811	3888	inactive
24	gem	1	79555	31280		3578	1173	inactive
25	gem	2	99713	37920		2155	3127	inactive
26	Oseg5	1	1.32e5	66460		3560	6725	inactive
27	HemK1	1	64160	98624		2802	3888	inactive
28	CG7724	1	84437	98674		3377	3568	inactive
29	mthl5	1	65861	81856		2264	2361	inactive
30	grau	1	69027	61724		1766	5635	inactive
31	CG12128	1	75472	77156		3605	3645	inactive
32	CG14569	1	1.67e5	1.52e5		5888	4872	inactive
33	PH4alphaSG2	1	66970	70113		1026	1896	inactive
34	Glut4EF	1	88267	61991		2860	2069	inactive
35	Glut4EF	2	1.25e5	1.78e5		3835	4624	inactive
36	Glut4EF	3	72106	1.31e5		1861	3195	inactive
37	Glut4EF	4	93235	1.32e5		2594	3392	inactive
38	Glut4EF	5	88256	1.21e5		2754	3113	inactive
39	CG18754	1	4.46e5	98780		23685	3025	inactive
40	Glg1	1	79660	1.23e5		3483	4760	inactive
41	Glg1	2	81008	82322		2584	1907	inactive
42	Glg1	3	99530	1.24e5		2564	3552	inactive
43	aub	1	1.23e5	1.03e5		4388	4147	inactive
44	CG31872	1	1.18e5	41190		3474	3898	inactive
45	CG31872	2	1.57e5	61207		3976	4523	inactive
46	mfr	1	30631	56723		3634	3944	inactive
47	obst-I	1	94106	67190		3861	2696	inactive
48	HSPBAP1	1	91731	1.12e5		2976	3424	inactive
49	CG42542	1	1.26e5	1.13e5		5537	4160	inactive
50	CG7987	1	91051	1.43e5		3715	5123	inactive
51	FucTD	1	61540	37921		2466	3320	inactive
52	CG3437	1	50231	35517	50992	3659	3632	inactive
53	Cul4	1	70033	39274		3133	1557	inactive
54	CG18765	1	1.08e5	1.29e5		3340	3216	inactive
55	CG17110	1	5.97e5	1.17e5		30203	3458	inactive
56	CG34375	1	6.81e5	1.20e5		36966	3699	inactive
57	CG34375	2	4.25e5	63906		25297	2368	inactive

Copied from above, 2 entries:
no.	Gene	reagent	firefly Hh reporter signal, replicate 1	firefly Hh reporter signal, replicate 2	firefly Hh reporter signal, replicate 3	Renilla reference signal, replicate 1	Renilla reference signal, replicate 2	activity call
17	Pde9	3	64402	2.11e5		1548	8484	inactive
18	Pde9	4	97750	3.12e5		3499	12621	inactive
